In the supplement of paper PMC10849652:
This is one part of the list.

The chains behind the UniProt entries cited, without tags or fusion partners. Where a name states a change or a piece, a line headed by the entry shows the natural chain unless it says otherwise.
UniProt Q7Z434: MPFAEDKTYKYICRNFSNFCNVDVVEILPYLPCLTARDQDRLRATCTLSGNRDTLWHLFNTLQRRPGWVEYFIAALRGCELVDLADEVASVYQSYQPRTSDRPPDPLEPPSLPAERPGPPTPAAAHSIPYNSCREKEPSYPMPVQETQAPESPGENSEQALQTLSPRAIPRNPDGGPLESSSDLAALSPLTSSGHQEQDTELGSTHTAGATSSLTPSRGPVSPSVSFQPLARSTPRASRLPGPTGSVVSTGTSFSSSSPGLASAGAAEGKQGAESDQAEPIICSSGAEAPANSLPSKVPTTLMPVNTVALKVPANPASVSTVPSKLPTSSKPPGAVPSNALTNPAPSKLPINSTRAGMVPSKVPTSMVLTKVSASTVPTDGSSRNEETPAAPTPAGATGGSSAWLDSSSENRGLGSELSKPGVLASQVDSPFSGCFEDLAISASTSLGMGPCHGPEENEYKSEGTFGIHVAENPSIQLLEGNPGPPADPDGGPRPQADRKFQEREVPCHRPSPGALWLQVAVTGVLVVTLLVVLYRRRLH
UniProt Q00266: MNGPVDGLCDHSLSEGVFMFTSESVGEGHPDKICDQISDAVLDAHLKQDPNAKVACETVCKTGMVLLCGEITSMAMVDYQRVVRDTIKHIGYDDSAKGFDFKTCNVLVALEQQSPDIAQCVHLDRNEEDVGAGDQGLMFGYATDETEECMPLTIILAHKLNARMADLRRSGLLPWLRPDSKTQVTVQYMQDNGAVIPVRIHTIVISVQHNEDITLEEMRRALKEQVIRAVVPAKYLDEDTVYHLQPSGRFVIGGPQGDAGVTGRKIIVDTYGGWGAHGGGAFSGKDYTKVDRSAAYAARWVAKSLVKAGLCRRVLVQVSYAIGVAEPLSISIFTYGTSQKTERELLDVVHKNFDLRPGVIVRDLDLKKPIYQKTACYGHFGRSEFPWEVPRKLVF
UniProt Q9HCE5: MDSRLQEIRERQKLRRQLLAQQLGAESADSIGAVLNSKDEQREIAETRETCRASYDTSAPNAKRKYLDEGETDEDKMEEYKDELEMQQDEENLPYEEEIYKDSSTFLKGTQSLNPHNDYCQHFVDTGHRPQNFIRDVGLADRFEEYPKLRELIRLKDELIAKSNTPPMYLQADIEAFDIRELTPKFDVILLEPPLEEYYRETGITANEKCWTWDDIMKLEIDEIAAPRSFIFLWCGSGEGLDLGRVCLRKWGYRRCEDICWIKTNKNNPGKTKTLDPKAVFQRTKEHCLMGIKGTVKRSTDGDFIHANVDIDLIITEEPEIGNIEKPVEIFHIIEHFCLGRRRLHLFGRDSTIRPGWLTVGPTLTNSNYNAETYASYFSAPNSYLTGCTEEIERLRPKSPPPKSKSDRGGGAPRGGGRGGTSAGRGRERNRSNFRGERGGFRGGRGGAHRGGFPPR
UniProt O95983: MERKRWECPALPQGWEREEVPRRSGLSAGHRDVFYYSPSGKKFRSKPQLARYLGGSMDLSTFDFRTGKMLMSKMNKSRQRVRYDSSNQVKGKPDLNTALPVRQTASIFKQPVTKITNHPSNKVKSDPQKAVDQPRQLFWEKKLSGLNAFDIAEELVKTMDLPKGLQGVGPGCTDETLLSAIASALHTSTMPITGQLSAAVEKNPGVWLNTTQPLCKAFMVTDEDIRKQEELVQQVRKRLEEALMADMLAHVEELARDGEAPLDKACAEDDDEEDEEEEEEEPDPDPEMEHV
UniProt P61244, whole entry, looked up: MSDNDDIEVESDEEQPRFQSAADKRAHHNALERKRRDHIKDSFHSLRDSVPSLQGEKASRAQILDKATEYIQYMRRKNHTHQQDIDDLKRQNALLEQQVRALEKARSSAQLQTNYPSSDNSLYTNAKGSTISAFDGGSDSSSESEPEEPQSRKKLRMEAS
UniProt Q9BQP7: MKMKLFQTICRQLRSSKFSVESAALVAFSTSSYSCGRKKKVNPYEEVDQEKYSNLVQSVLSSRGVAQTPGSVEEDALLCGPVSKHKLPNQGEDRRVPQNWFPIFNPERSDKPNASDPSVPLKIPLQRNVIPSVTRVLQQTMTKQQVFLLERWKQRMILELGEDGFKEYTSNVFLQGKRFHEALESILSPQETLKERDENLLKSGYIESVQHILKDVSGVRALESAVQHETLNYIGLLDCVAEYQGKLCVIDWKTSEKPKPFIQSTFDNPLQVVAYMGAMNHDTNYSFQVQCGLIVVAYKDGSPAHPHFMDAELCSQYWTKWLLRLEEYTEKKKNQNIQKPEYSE
UniProt Q96RN5: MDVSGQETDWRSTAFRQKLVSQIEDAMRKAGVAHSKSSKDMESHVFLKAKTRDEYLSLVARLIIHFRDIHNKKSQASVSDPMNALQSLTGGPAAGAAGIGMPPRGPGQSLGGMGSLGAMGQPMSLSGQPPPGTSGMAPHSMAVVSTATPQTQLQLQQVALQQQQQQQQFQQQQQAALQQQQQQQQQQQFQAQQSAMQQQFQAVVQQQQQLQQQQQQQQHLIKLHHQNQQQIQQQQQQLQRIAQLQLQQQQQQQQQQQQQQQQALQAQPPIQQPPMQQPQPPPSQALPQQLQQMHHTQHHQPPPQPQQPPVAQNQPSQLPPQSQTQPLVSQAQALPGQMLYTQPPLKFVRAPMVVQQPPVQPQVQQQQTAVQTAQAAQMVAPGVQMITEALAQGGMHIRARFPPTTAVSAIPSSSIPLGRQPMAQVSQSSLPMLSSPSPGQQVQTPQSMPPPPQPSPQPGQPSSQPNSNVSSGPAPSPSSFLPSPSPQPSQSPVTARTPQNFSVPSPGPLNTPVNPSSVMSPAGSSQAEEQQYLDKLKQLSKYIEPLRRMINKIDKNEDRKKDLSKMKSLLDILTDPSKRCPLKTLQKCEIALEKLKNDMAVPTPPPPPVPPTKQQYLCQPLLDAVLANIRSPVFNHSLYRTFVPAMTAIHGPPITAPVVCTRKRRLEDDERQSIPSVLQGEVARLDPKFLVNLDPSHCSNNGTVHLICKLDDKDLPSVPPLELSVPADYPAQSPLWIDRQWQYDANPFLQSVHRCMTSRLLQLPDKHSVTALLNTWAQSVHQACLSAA
UniProt Q9ULC4: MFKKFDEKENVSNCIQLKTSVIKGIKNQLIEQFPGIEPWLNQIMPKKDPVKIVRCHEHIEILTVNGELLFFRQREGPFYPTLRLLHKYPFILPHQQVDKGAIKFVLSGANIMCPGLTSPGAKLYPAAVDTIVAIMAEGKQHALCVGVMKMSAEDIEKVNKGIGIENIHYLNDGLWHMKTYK
UniProt Q6ZWT7: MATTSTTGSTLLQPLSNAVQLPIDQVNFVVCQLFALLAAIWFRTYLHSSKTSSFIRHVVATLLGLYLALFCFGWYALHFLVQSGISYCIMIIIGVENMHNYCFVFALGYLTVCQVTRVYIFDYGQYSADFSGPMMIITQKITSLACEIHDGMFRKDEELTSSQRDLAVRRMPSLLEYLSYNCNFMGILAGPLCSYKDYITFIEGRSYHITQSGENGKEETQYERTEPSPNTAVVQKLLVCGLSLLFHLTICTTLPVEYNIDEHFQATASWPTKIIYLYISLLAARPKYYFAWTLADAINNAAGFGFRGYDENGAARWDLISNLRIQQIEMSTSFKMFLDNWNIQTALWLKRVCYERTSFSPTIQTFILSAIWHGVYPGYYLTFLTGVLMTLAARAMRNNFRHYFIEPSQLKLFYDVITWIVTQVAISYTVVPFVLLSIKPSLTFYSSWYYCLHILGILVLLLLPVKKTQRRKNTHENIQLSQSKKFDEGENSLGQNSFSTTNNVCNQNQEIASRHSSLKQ
UniProt O75448: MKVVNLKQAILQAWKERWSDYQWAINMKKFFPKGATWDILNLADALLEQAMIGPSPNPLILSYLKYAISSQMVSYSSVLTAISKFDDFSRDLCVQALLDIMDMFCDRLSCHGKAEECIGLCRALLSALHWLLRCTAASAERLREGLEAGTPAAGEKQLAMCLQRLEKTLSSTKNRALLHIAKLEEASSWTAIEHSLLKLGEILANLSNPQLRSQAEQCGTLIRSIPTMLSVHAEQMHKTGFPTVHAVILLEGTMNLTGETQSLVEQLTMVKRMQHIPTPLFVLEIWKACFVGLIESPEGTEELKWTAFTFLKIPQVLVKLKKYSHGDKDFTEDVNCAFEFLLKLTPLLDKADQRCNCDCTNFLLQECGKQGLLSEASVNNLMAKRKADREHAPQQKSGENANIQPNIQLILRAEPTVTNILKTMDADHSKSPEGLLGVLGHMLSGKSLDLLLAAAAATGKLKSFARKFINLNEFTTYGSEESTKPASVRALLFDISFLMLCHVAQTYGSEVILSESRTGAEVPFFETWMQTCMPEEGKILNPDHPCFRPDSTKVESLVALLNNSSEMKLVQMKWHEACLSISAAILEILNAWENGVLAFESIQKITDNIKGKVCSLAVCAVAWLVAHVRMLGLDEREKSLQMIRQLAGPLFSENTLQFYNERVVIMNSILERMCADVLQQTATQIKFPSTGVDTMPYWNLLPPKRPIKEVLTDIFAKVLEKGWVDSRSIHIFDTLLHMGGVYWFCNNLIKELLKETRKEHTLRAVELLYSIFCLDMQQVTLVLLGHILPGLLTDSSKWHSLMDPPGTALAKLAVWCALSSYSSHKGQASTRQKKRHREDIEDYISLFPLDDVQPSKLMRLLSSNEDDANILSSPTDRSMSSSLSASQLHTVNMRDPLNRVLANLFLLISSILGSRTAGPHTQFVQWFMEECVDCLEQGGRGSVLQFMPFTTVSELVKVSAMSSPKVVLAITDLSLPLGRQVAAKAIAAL
UniProt Q9Y316: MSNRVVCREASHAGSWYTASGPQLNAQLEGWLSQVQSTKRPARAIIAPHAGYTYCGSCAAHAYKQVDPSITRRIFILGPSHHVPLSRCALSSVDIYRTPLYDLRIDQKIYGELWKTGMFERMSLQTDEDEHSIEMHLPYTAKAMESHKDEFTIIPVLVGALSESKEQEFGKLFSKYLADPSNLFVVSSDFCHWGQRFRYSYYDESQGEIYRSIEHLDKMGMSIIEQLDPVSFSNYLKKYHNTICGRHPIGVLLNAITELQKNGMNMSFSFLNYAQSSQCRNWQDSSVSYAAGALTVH
UniProt Q9BV79: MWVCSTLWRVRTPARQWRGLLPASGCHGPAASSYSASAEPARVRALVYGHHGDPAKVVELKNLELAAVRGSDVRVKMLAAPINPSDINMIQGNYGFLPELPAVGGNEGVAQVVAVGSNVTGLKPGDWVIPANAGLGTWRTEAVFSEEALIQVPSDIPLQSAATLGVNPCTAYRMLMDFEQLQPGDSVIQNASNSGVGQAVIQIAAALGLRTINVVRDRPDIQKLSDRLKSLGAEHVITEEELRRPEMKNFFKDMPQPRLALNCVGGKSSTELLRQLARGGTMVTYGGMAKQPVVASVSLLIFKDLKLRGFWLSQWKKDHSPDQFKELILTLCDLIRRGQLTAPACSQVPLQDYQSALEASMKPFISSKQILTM
UniProt P33992: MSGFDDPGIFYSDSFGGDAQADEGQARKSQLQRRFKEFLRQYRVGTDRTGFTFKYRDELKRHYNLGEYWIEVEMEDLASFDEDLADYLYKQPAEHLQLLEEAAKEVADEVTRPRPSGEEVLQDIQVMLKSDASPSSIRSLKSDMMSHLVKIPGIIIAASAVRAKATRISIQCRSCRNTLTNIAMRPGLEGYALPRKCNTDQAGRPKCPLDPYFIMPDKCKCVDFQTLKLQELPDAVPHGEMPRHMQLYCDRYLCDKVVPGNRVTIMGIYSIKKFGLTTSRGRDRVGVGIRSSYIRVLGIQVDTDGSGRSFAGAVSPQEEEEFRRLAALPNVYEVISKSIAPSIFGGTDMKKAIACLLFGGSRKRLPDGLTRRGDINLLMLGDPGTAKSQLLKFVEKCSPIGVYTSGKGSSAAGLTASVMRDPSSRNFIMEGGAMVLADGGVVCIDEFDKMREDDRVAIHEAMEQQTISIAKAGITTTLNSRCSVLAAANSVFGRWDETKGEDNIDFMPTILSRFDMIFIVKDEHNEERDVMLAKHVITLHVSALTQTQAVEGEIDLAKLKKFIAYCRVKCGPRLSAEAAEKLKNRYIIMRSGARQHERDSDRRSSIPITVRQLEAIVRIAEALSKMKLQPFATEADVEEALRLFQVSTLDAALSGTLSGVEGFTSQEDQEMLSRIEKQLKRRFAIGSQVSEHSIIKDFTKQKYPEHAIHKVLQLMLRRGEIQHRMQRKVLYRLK
UniProt Q9NZL9, whole entry, looked up: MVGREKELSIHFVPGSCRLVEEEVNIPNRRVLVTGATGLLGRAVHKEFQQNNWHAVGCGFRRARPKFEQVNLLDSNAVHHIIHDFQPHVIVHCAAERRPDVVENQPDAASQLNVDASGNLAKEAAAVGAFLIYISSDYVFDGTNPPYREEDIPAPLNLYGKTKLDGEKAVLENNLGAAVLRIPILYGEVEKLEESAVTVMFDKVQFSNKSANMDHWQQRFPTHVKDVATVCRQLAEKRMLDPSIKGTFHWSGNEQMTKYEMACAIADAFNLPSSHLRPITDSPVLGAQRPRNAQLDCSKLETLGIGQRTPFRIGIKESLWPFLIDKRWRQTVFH

What was measured:
Experiment in all cases: log2 fold change, soluble protein after heating vs DMSO (PISA); higher = thermal stabilisation; K562 cells, 10 uM, 30 min; active = over 0.2 and 3.5 SD of the protein, either way, in both replicates (recomputed)
[1] = compound: CC[C@@H]1C(=O)N(C)c2cnc(Nc3ccc(C(=O)NC4CCN(C)CC4)cc3OC)nc2N1C1CCCC1
Outline: (§1)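 K562 cells at 2×10^6 cells/mL were given 10 μM compound for 30 min. Aliquots then went through 3 min of heating across 48°C-58°C, were pooled, and were extracted in PBS with 0.5% NP-40 at 4°C, and the supernatant after 21,000xg for 90 min was quantified by TMTpro 16plex LC-MS/MS with channel sums equalised. Thermal stability relative to control samples, from duplicates, is given as log2 fold change.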

volasertib = compound: CC[C@@H]1C(=O)N(C)c2cnc(Nc3ccc(C(=O)N[C@H]4CC[C@H](N5CCN(CC6CC6)CC5)CC4)cc3OC)nc2N1C(C)C [volasertib]
Outline: as §1

[2] = compound: CC[C@H](C)N1C=C(C2=C(C=C(C=C21)C3=CN=C(C=C3)N4CCNCC4)C(=O)NCC5=C(C=C(NC5=O)C)C)C
Outline: as §1

epoxomicin = compound: CC[C@H](C)[C@@H](C(=O)N[C@@H]([C@@H](C)O)C(=O)N[C@@H](CC(C)C)C(=O)[C@]1(CO1)C)NC(=O)[C@H]([C@@H](C)CC)N(C)C(=O)C [epoxomicin]
Outline: as §1

[3] = compound: CCn1c(C(=O)N(C2CC2)C2CC2)cc2c3c(ncn3C)c(Nc3cc(C)n(C)n3)nc21
Outline: as §1

[4] = compound: CCn1cc(-c2ccnc3[nH]c(-c4cccc(CN(C)C)c4)cc23)c(-c2ccc(NC(=O)N(C)C)cc2)n1
Outline: as §1

[5] = compound: CN(C)CC(=O)Nc1ccc2[nH]c(=O)c3ccccc3c2c1
Outline: as §1

rosiglitazone = compound: CN(CCOC1=CC=C(C=C1)C[C@H]2C(=O)NC(=O)S2)C3=CC=CC=N3 (racemic) [rosiglitazone]
Outline: as §1

[6] = compound: CN1C2=C(C3=C1C(=O)N(N=C3)CC4=CC(=CC=C4)N)SC(=C2)S(=O)C
Outline: as §1

[7] = compound: CN1CCC(CNc2ccc3ncc(-c4cccc(OC(F)(F)F)c4)n3n2)CC1
Outline: as §1

saracatinib = compound: CN1CCN(CCOc2cc(OC3CCOCC3)c3c(Nc4c(Cl)ccc5c4OCO5)ncnc3c2)CC1 [saracatinib]
Outline: as §1

sotrastaurin = compound: CN1CCN(c2nc(C3=C(c4c[nH]c5ccccc45)C(=O)NC3=O)c3ccccc3n2)CC1 [sotrastaurin]
Outline: as §1

alvocidib = compound: CN1CC[C@H](c2c(O)cc(O)c3c(=O)cc(-c4ccccc4Cl)oc23)[C@H](O)C1 [alvocidib]
Outline: as §1

Tubastatin A = compound: CN1CCc2c(c3ccccc3n2Cc2ccc(C(=O)NO)cc2)C1 [Tubastatin A]
Outline: as §1

[8] = compound: CNC(=O)C1=CC=CC=C1NC2=NC(=NC=C2Cl)NC3=C(C=C(C=C3)N4CCOCC4)OC
Outline: as §1

defactinib = compound: CNC(=O)c1ccc(Nc2ncc(C(F)(F)F)c(NCc3nccnc3N(C)S(C)(=O)=O)n2)cc1 [defactinib]
Outline: as §1

rucaparib = compound: CNCc1ccc(-c2[nH]c3cc(F)cc4c3c2CCNC4=O)cc1 [rucaparib]
Outline: as §1

[9] = compound: CNc1nc(-c2ccc3c(N)n[nH]c3c2)cc(N2C[C@@H](C(=O)NC3CCCCC3)CC[C@H]2C)n1
Outline: as §1

encorafenib = compound: COC(=O)N[C@@H](C)CNc1nccc(-c2cn(C(C)C)nc2-c2cc(Cl)cc(NS(C)(=O)=O)c2F)n1 [encorafenib]
Outline: as §1

[10] = compound: COC(=O)[C@H](CCSC)NC(=O)C1=C(C=C(C=C1)NC[C@H](CS)N)C2=CC=CC=C2
Outline: as §1

Measured: log2 fold change

MAVS (UniProt Q7Z434)
inactive: [1] -0.001 | volasertib -0.033 | [2] -0.015 | epoxomicin -0.035 | [3] 0.004 | [4] -0.002 | [5] -0.033 | rosiglitazone 0.015 | [6] -0.026 | [7] -0.039 | saracatinib 0.041 | sotrastaurin 0.021 | alvocidib -0.01 | Tubastatin A -0.003 | [8] -0.023 | defactinib -0.002 | rucaparib 0.014 | [9] -0.025 | encorafenib -0.023 | [10] -0.008

MAT1A (UniProt Q00266)
inactive: [1] -0.023 | volasertib 0.071 | [2] -0.026 | epoxomicin 0.043 | [3] 0.08 | [4] 0.032 | [5] -0.007 | rosiglitazone -0.014 | [6] -0.004 | [7] -0.01 | saracatinib 0.088 | sotrastaurin 0.051 | alvocidib 0.083 | Tubastatin A -0.027 | [8] -0.035 | defactinib -0.012 | rucaparib 0.01 | [9] -0.026 | encorafenib -0.028 | [10] 0.043

METTL14 (UniProt Q9HCE5)
inactive: [1] -0.001 | volasertib -0.031 | [2] 0.074 | epoxomicin 0.035 | [3] 0.008 | [4] -0.036 | [5] -0.018 | rosiglitazone 0.038 | [6] -0.005 | [7] -0.004 | saracatinib 0.06 | sotrastaurin 0.039 | alvocidib -0.008 | Tubastatin A -0.015 | [8] -0.007 | defactinib -0.02 | rucaparib -0.019 | [9] -0.04 | encorafenib 0.014 | [10] 0.005

MBD3 (UniProt O95983)
inactive: [1] -0.062 | volasertib -0.078 | [2] 0.027 | epoxomicin 0.002 | [3] -0.024 | [4] 0.11 | [5] -0.002 | rosiglitazone 0.044 | [6] 0.012 | [7] 0.014 | saracatinib 0.027 | sotrastaurin -0.087 | alvocidib -0.034 | Tubastatin A -0.05 | [8] 0.027 | defactinib -0.062 | rucaparib 0.047 | [9] -0.051 | encorafenib 0.017 | [10] 0.036

MAX (UniProt P61244)
inactive: [1] 0.095 | volasertib 0.132 | [2] 0.015 | epoxomicin 0.021 | [3] 0.061 | [4] -0.019 | [5] -0.039 | rosiglitazone 0.008 | [6] -0.015 | [7] 0.029 | saracatinib 0.084 | sotrastaurin 0.068 | alvocidib 0.092 | Tubastatin A -0.092 | [8] -0.041 | defactinib 0 | rucaparib -0.027 | [9] -0.073 | encorafenib -0.043 | [10] 0.033

MGME1 (UniProt Q9BQP7)
inactive: [1] -0.034 | volasertib 0.011 | [2] 0.011 | epoxomicin 0.046 | [3] 0.039 | [4] -0.048 | [5] -0.005 | rosiglitazone 0.023 | [6] -0.028 | [7] -0.059 | saracatinib 0.031 | sotrastaurin 0.014 | alvocidib -0.019 | Tubastatin A -0.027 | [8] -0.032 | defactinib -0.014 | rucaparib -0.029 | [9] -0.017 | encorafenib -0.026 | [10] 0

MED15 (UniProt Q96RN5)
inactive: [1] 0.042 | volasertib 0.001 | [2] 0.022 | epoxomicin 0.135 | [3] 0 | [4] 0 | [5] -0.002 | rosiglitazone 0.055 | [6] 0.038 | [7] 0 | saracatinib -0.025 | sotrastaurin -0.054 | alvocidib -0.21 | Tubastatin A 0.102 | [8] 0.035 | defactinib -0.021 | rucaparib 0.027 | [9] 0.014 | encorafenib -0.016 | [10] 0.05

MCTS1 isoform 3 (UniProt Q9ULC4)
inactive: [1] 0.007 | volasertib 0.081 | [2] -0.021 | epoxomicin -0.003 | [3] 0.037 | [4] -0.039 | [5] -0.021 | rosiglitazone -0.011 | [6] -0.042 | [7] 0.036 | saracatinib 0.022 | sotrastaurin 0.016 | alvocidib -0.028 | Tubastatin A 0 | [8] 0.022 | defactinib -0.044 | rucaparib -0.026 | [9] -0.026 | encorafenib -0.027 | [10] 0.016

MBOAT2 (UniProt Q6ZWT7)
inactive: [1] 0.022 | volasertib -0.095 | [2] 0.033 | epoxomicin 0.032 | [3] -0.035 | [4] -0.005 | [5] 0.038 | rosiglitazone -0.039 | [6] -0.076 | [7] 0.057 | saracatinib 0.093 | sotrastaurin 0 | alvocidib -0.038 | Tubastatin A 0.002 | [8] 0.002 | defactinib -0.035 | rucaparib -0.062 | [9] -0.033 | encorafenib 0.063 | [10] 0.015

MED24 (UniProt O75448)
inactive: [1] 0.036 | volasertib 0.368 | [2] 0.062 | epoxomicin -0.126 | [3] -0.006 | [4] -0.142 | [5] 0.017 | rosiglitazone 0.028 | [6] 0.075 | [7] -0.146 | saracatinib 0.02 | sotrastaurin -0.097 | alvocidib -0.054 | Tubastatin A -0.095 | [8] -0.008 | defactinib 0.002 | rucaparib 0.083 | [9] -0.042 | encorafenib 0.093 | [10] 0.034

MARS2 (UniProt Q96GW9)
inactive: [1] 0.039 | volasertib 0.061 | [2] -0.045 | epoxomicin 0.045 | [3] -0.011 | [4] -0.041 | [5] -0.021 | rosiglitazone 0.013 | [6] -0.054 | [7] 0.082 | saracatinib 0.045 | sotrastaurin 0.087 | alvocidib -0.046 | Tubastatin A -0.055 | [8] -0.028 | defactinib -0.009 | rucaparib 0.02 | [9] -0.027 | encorafenib -0.055 | [10] -0.022

MEMO1 (UniProt Q9Y316)
inactive: [1] -0.002 | volasertib 0.123 | [2] 0.02 | epoxomicin 0.108 | [3] -0.01 | [4] -0.085 | [5] -0.007 | rosiglitazone 0.035 | [6] -0.108 | [7] -0.165 | saracatinib 0.05 | sotrastaurin 0.01 | alvocidib -0.071 | Tubastatin A -0.017 | [8] -0.012 | defactinib -0.043 | rucaparib -0.029 | [9] 0.004 | encorafenib -0.006 | [10] 0.027

Quoted at random: two records from the list.
MEMO1 (UniProt Q9Y316)
inactive: [1] -0.002 | volasertib 0.123 | [2] 0.02 | epoxomicin 0.108 | [3] -0.01 | [4] -0.085 | [5] -0.007 | rosiglitazone 0.035 | [6] -0.108 | [7] -0.165 | saracatinib 0.05 | sotrastaurin 0.01 | alvocidib -0.071 | Tubastatin A -0.017 | [8] -0.012 | defactinib -0.043 | rucaparib -0.029 | [9] 0.004 | encorafenib -0.006 | [10] 0.027

MED24 (UniProt O75448)
inactive: [1] 0.036 | volasertib 0.368 | [2] 0.062 | epoxomicin -0.126 | [3] -0.006 | [4] -0.142 | [5] 0.017 | rosiglitazone 0.028 | [6] 0.075 | [7] -0.146 | saracatinib 0.02 | sotrastaurin -0.097 | alvocidib -0.054 | Tubastatin A -0.095 | [8] -0.008 | defactinib 0.002 | rucaparib 0.083 | [9] -0.042 | encorafenib 0.093 | [10] 0.034

More results follow:

MECR (UniProt Q9BV79)
inactive: [1] 0.009 | volasertib 0.048 | [2] -0.028 | epoxomicin 0.037 | [3] 0.011 | [4] -0.001 | [5] 0.007 | rosiglitazone -0.005 | [6] -0.135 | [7] -0.028 | saracatinib 0.077 | sotrastaurin 0.031 | alvocidib -0.069 | Tubastatin A 0.014 | [8] -0.016 | defactinib -0.051 | rucaparib -0.007 | [9] 0.017 | encorafenib -0.012 | [10] 0.002

MCM5 (UniProt P33992)
inactive: [1] -0.027 | volasertib -0.055 | [2] 0.043 | epoxomicin 0.033 | [3] -0.003 | [4] -0.019 | [5] 0.025 | rosiglitazone 0.009 | [6] -0.038 | [7] 0 | saracatinib 0.044 | sotrastaurin -0.016 | alvocidib -0.057 | Tubastatin A -0.032 | [8] -0.019 | defactinib -0.062 | rucaparib -0.084 | [9] -0.008 | encorafenib 0.019 | [10] -0.012

MGAT2 (UniProt Q10469)
inactive: [1] -0.089 | volasertib -0.104 | [2] 0.045 | epoxomicin 0.034 | [3] 0.024 | [4] -0.009 | [5] 0.029 | rosiglitazone 0.025 | [6] -0.059 | [7] 0.017 | saracatinib -0.046 | sotrastaurin -0.017 | alvocidib -0.064 | Tubastatin A -0.02 | [8] 0.04 | defactinib -0.072 | rucaparib -0.069 | [9] -0.013 | encorafenib 0.084 | [10] -0.038

MAT2B (UniProt Q9NZL9)
inactive: [1] -0.009 | volasertib 0.016 | [2] -0.027 | epoxomicin 0.009 | [3] 0.004 | [4] -0.004 | [5] 0.01 | rosiglitazone 0 | [6] -0.014 | [7] -0.047 | saracatinib 0.059 | sotrastaurin 0.05 | alvocidib 0.015 | Tubastatin A -0.003 | [8] -0.024 | defactinib -0.021 | rucaparib -0.032 | [9] -0.032 | encorafenib -0.009 | [10] -0.008
